Test results as given in patent US20050059615A1, “Transmucosal dosage forms for brain-targeted steroid chemical delivery systems” (priority 2003, published 2005).

Test system: 2OHE1/16OHE1
Experiment: Phase I clinical study: urinary estrone and 2OHE1/16OHE1
Settings: for amount of urinary 16OHE1 relative to day 1 (8-hour adjusted): end of treatment

SMILES: CN1C=CCC(C(=O)O[C@H]2CC[C@H]3[C@@H]4CCc5cc(O)ccc5[C@H]4CC[C@]23C)=C1 [E2-CDS, 17β-[(1-methyl-1,4-dihydro-3-pyridinyl)carbonyloxy]estra-1,3,5(10)-trien-3-ol]
- difference of mean ratios, urine (day 10 minus day 1, Group A): 0.15
- difference of mean ratios, urine (day 13 minus day 1, Group B): 0.05
- amount of urinary 16OHE1 relative to day 1 (8-hour adjusted) (Group A): 2.48 times
- amount of urinary 16OHE1 relative to day 1 (8-hour adjusted) (Group B): 1.26 times
- mean amount of urinary 2OHE1 relative to day 1 (adjusted to 8-hour collection) (last dosing day (day 10), Group A): 4.46 times
- mean amount of urinary 2OHE1 relative to day 1 (adjusted to 8-hour collection) (last dosing day (day 13), Group B): 2.34 times
